Screen size: about 31,000 sequences; about 1,400 (4.5%) were called active.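 The calls were made as follows: active = median seed-adjusted z-score above 1 or below -1; inactive = the rest.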 This is one part of the list.

This assay in a line: Novel Modifiers of Survival Motor Neuron (SMN) Protein: Gene Identification via Genome-wide siRNA Screen.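 Also: luminescence tracks full-length SMN protein made from the SMN2 reporter.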 The conditions noted are these: HEK293T SMN2-luciferase reporter, siRNA knockdown, 72 h; actives lie on both sides. The method in brief:
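Luciferase signal, proportional to full-length SMN made from an SMN2 cDNA reporter in stable HEK293T cells, was read 72 h after siRNA reverse transfection. Values were expressed as MAD scores after non-targeting-control normalization and log10 conversion; seed analysis flagged off-targets.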
On the technique in general: A reporter such as luciferase makes a cellular process visible.
CGAGAGUGCGAGAAAAAUATT against SFXN1: the median seed-adjusted z-score is inactive: -0.746. As for CUACCAGGGUGGAAAAUUUTT against UBE2F, the figure is inactive: 0; as for GAUCCUGAGUGACAUGCGATT against KRT19, inactive: 0.0661. For the sequence GGAUCGAUAUUUUGUCGAATT against BAZ1A, the median seed-adjusted z-score was inactive: 0.0896.

With GAGGUAAAACGAACCAUUATT against SLAMF1, the median seed-adjusted z-score is inactive: -0.104. GUAUCUCAACAUCAAACUATT against LSM2: the median seed-adjusted z-score is active: -1.48. In the case of CCCUCACCCUUACAUCGCATT against SPHK2, the median seed-adjusted z-score is inactive: 0.

CAGAGACUAGGAAACGUAATT against USP51: the median seed-adjusted z-score is inactive: -1.

As to GGAAAAAGAUUCAAGAAAATT against TRIM43, the median seed-adjusted z-score is inactive: -0.4. For CUACGUCUCGGGUCCAGAUTT against HOXA11, the median seed-adjusted z-score was inactive: -0.222. UAACUGAUUUACCUACUUATT against DLX4: the median seed-adjusted z-score was inactive: -0.0473. Take CAACUAGUGGAGAAGAUCATT against FAM63B: the median seed-adjusted z-score is inactive: 0.111. With GGACGACUGCAGCAAGUUUTT against ATP2A3, the median seed-adjusted z-score was inactive: -0.28. As for CAUCCUUCAUAGACGGCUATT against PTPRE, the figure is inactive: 0.619; as for GCAACCUUCUAACUACGGUTT against HNRNPA2B1, active: 1.33. As for CAUGGAAGAUCUGACCAUATT against MEOX2, the median seed-adjusted z-score was active: 1.36. For UGACUAAAGAGGAACAGAUTT against PTH1R the value was inactive: -0.521. On to GCAAGAACGUGAUCGGGUUTT against TAGLN2, for which the median seed-adjusted z-score is inactive: 0.432. As for CAGGGAAGCUAGACACUGATT against MMP10, the median seed-adjusted z-score is inactive: 0.902.

Turning to GGAGACCCGCUGAACAAUATT against ERBB2, the median seed-adjusted z-score is inactive: 0.158. CGAACCUCGUCUUCACCUATT against FOSL2: the median seed-adjusted z-score is inactive: -0.372. As for CACUUGCACAGAUACCCUUTT against COLEC12, the figure is active: -1.04; as for CCGUAGCAAUAGUAGGUGUTT against UBA5, inactive: -0.105. For GCCUCUACAUCAUAAACCUTT against HTR3C the value was inactive: -0.221; for GCGGACAUGUGGGAAUGUATT against KIAA1804, inactive: -0.211; for GGAGUACAAUAAGAGGCGATT against TAOK3, inactive: -0.594. CCGUCUAUGCAAAGAUGUATT against TOMM40L: the median seed-adjusted z-score was inactive: 0.12.

CAUGGACUACUGGAUCUUUTT against PPYR1: the median seed-adjusted z-score is inactive: 0.589.

Consider GCAAGAGACCCUCAACAGATT against KIR2DL4, for which the median seed-adjusted z-score is inactive: -0.271.

CAAGAAUGUCUAUAAUGCATT against BACH2: the median seed-adjusted z-score is inactive: 0.

On to GCACAAUUGAGAUACAGGUTT against PCDHA5, for which the median seed-adjusted z-score is inactive: 0.671. In the case of CCAGCAGCGUGACGAUACUTT against AZU1, the median seed-adjusted z-score was inactive: 0.349.

As to CAAAUACGAUUAUCCACUUTT against SLC26A3, the median seed-adjusted z-score is inactive: -0.506. With AAUUCUUUAUGAAUGCAAATT against ING3, the median seed-adjusted z-score was inactive: 0.192. Take GCAAAUACCUGAUCUGCAATT against ANKK1: the median seed-adjusted z-score is inactive: -0.288. For the sequence GCCUACAAGCAGAUUCAAATT against PTRH2, the median seed-adjusted z-score was inactive: 0.0467. Consider GCUGUAAAGAUACAUCUCATT against ENPP1, for which the median seed-adjusted z-score was inactive: -0.273. As for CAACAGACCUUGCACUCAATT against SCYL3, the figure is inactive: 0.665; as for GCCGAGAACUUCACUCUUUTT against P2RX1, inactive: 0.908. For GAGGCUGACUUCUACCAGATT against KCTD11, the median seed-adjusted z-score was inactive: 0.374. For CUAUAGUCCUGCCUACUUATT against CRTC2 the value was inactive: -0.691; for GGAGCAUCAGAGAUUGAUATT against STAMBPL1, inactive: 0.13; for CCGUGAGAGUUCCAACUUUTT against HDAC6, inactive: 0.0457. For the sequence AGAUGGAGUUUGAUCCUAATT against POLR2G, the median seed-adjusted z-score was active: -4.19. As for UGGUCAACGUGGACAUGAATT against PLCD3, the median seed-adjusted z-score was inactive: 0.228.

For CAGUGAAACUAAGUAAUAUTT against GSTA4, the median seed-adjusted z-score is inactive: -0.848.

With GAAGGGCCGUAUUGAGUUUTT against ABCB6, the median seed-adjusted z-score was inactive: -0.359. As for CCUAGGAGUUUGCUACAUATT against BBS4, the median seed-adjusted z-score was inactive: -0.0339. GAAUUAUGUCAGCAACGUATT against FER: the median seed-adjusted z-score is inactive: 0. On to CGCCAGACGUUUUCCAUCATT against AZU1, for which the median seed-adjusted z-score is inactive: 0.349. As to GAAUCCACCCAGAUUUACATT against NEK4, the median seed-adjusted z-score was inactive: -0.076.

With GGACCUUAUUCACCAGUUATT against PLK4, the median seed-adjusted z-score is inactive: -0.0888. As for GGAUAUAACCAGUUUCCUUTT against CYP2U1, the median seed-adjusted z-score is inactive: 0.144. Consider GGACUUAUCUGAGUAUAGUTT against ITGA3, for which the median seed-adjusted z-score was inactive: 0.

GGUGUCGGAUGAUUUAUCATT against MYRIP: the median seed-adjusted z-score was inactive: 0.141. Regarding GGAUUCGAGUCAUCAAGAATT against CPXM1, the median seed-adjusted z-score was inactive: 0.147.

For GGAUCUACCUGAAUAACAATT against MSRB2, the median seed-adjusted z-score is inactive: 0.373.

With GGAACGUGCUCAUCUGUGATT against PDGFRB, the median seed-adjusted z-score was inactive: -0.709.

As for AGGUACUUCUACUCCCGAATT against LGALS3BP, the median seed-adjusted z-score is inactive: 0.187. On to CCUUGUCUUUGGGUAAUCATT against GPR128, for which the median seed-adjusted z-score was inactive: -0.208. With GCUGCUACAUGGUAUUACUTT against TG, the median seed-adjusted z-score was inactive: 0.0137. As for CAGGAUCUACGAUAAGGUATT against ACSL5, the figure is inactive: 0.109. As for ACCCUGCCCACAUAUCUUATT against PRSS22, the median seed-adjusted z-score is inactive: -0.565. On to CCUCAAGAGAUGAUUGAUATT against B3GNT2, for which the median seed-adjusted z-score was inactive: -0.0427. Take CGAUGACCAUCGACUGGAATT against SLC25A25: the median seed-adjusted z-score is inactive: -0.668. Regarding GGGCCCUAGUGAACUGUCATT against EXOSC4, the median seed-adjusted z-score is inactive: 0.443. With GAUCGAAUCUUUAAGGUCUTT against EIF2C1, the median seed-adjusted z-score is inactive: 0.215. On to GCACAACUGUAGAGACAGATT against CIDEC, for which the median seed-adjusted z-score was inactive: 0.189.

As to GGCUAUGUGGUGAACCUUUTT against SORL1, the median seed-adjusted z-score is inactive: 0.357. As for GCCUCUCAGGGAAAGAGUATT against SEMA4F, the figure is inactive: 0.139; as for CCAACUUGAUUAUGAUGUUTT against ZFP91, inactive: 0.0597; as for GGAAGAUCACAUUAGUAAATT against GKAP1, inactive: -0.119. For GCUCCUUAUUGAACAGUUUTT against SLC16A12, the median seed-adjusted z-score is inactive: 0.0219. CCUUAGAAAGUUUCAAUUATT against TADA2L: the median seed-adjusted z-score was inactive: 0.0455. With UCUUAUCCUUUGUCGCAGATT against LMO3, the median seed-adjusted z-score was inactive: 0.496. Take GCCGGAGUGUUGAAUUAGATT against PLCL2: the median seed-adjusted z-score is inactive: 0.393. Turning to GGAUAUUGCAGAUAAUCCATT against STYX, the median seed-adjusted z-score was inactive: 0.694.

Take GGCUUGUAGGUGGAACUAATT against CD163L1: the median seed-adjusted z-score is inactive: 0.353. As for GCUCUGUACAGGAAACUCUTT against IL2RA, the median seed-adjusted z-score is inactive: 0.587. In the case of CUACCGCAUCAGUAACAGATT against DDX21, the median seed-adjusted z-score was inactive: -0.251. For GCAUUCUGUUAGACAGUGATT against ST8SIA4, the median seed-adjusted z-score was inactive: -0.309.

Regarding GCAUCGUGAUGGUGACACUTT against DPEP3, the median seed-adjusted z-score is inactive: 0.95.

In the case of CCGUCACCCUUAUCAGCAATT against PTPRG, the median seed-adjusted z-score is inactive: 0.0697.

For the sequence CCUGGAUACCCUAAGCAAATT against PSMD2, the median seed-adjusted z-score is active: -1.44.

Take CAAGCUCUGCGGAAAUCAATT against SPSB2: the median seed-adjusted z-score is inactive: -0.741. For CCCUACAUAGGAAACCUGUTT against PKD1L2, the median seed-adjusted z-score was active: -1.17. For ACAGGAUACCCAACUUUAATT against MTHFSD the value was inactive: -0.298; for GAAGGGCCUUUUUAUCCAATT against MCTS1, inactive: 0.116. As for CCUGCUAGCUGAGAACGAATT against RPUSD2, the median seed-adjusted z-score was inactive: -0.215. As for GGAUAGCGACUAUAAUCCATT against ZNF335, the figure is inactive: -0.305; as for CGACCGUCCUGAAUUCUAATT against BAI1, inactive: -0.663. As to GCUCAUCCCUGUGCAUGGUTT against LY6G5B, the median seed-adjusted z-score was active: -1.29.

Consider CGUUCACCUUCAUGAGGGATT against OBP2B, for which the median seed-adjusted z-score is inactive: -0.642. CUACCUCCUGAAUAUGAUATT against ZNF567: the median seed-adjusted z-score was inactive: -0.114. For CAUCAGUGGUUGGAGACCATT against RNF185 the value was inactive: -0.388; for AGUUCUCAGCGAAAAAGAATT against CETN2, inactive: -0.0139; for GCAUAACUGUAACAGAGAATT against RPP30, inactive: -0.656. For GGGUUGAAACCUUAUGAAUTT against ZNF33B the value was inactive: -0.279.

With CCGAGGCAAUGAUUCGUGUTT against CASD1, the median seed-adjusted z-score is inactive: 0.202. As to GCGGCAGAGUCAAAUACAATT against GATAD2A, the median seed-adjusted z-score is inactive: -0.715.

For GAGCUGACCCGAAACAAGATT against CLP1, the median seed-adjusted z-score was inactive: -0.372. With GCCCAAGUGUGAAGACUGUTT against SIRT2, the median seed-adjusted z-score is inactive: 0.727.

Regarding AGGCGGUGCUUGUUCCUCATT against TNF, the median seed-adjusted z-score was inactive: -0.138. For the sequence CAUCUGAACUCGAUGGAGATT against PTH, the median seed-adjusted z-score was inactive: 0. Consider GAAGAAUACAAACAGCAAUTT against CRCP, for which the median seed-adjusted z-score was inactive: 0.

As for CGGAGGUGACUGACAGAUATT against CAMKV, the median seed-adjusted z-score was inactive: -0.193. Turning to ACAUAACCGUUCUUCGAGATT against GTPBP2, the median seed-adjusted z-score was inactive: -0.166.

On to UCUUCUCUGUUAUCAAUAUTT against APH1A, for which the median seed-adjusted z-score was inactive: 0.741.

The values above are taken from PubChem BioAssay AID1347426 (Functional Genomics Laboratory (NCATS/FGL), 2020).
